Laboratory results: PubChem BioAssay AID540256 (National Center for Advancing Translational Sciences (NCATS), 2011)
Several values for one entry are separate records, joined by “and”; a condition that tells them apart may be missing. Identical values can stand only once. The whole screen tested about 300,000 compounds, of which about 3,700 (1.2%) were called active. The inconclusive results got no clear call from the source; some entries with a clear call stand among them for comparison. Calls follow the shape of the full dose curve; tested in HEK293 cells. Potencies beside an inconclusive call are fits to weak or partial responses and may not hold up.

Assay: qHTS for Inhibitors of binding or entry into cells for Lassa Virus; also: nearly all actives have a fitted effect of over 50% in size
Conditions: Lassa virus pseudotype entry inhibition, cell reporter; series mostly up to 37.9 µM
Potency is read from the fitted curve at half-maximal effect.

SMILES	Potency
COc1cc(OC)cc(N(C(=O)C2COc3ccccc3O2)C(C(=O)NC2CCCCC2)c2ccc(O)cc2)c1 (stereo not drawn)	inconclusive: 10 µM [inhibitor, partial curve]
CCn1c(C)c(C(C)=O)c(NCc2ccccc2)nc1=S	inactive
O=C(Cn1cnc([N+](=O)[O-])n1)N/N=C/c1ccc(O)cc1O	inconclusive: 14.1 µM [inhibitor, partial curve, poor fit]
COc1ccc([N+](=O)[O-])cc1NCc1ccccc1C	inconclusive: 6.51 µM [activator, single point]
CC1CCN(C(=O)Cn2cnc3c(cnn3C(C)(C)C)c2=O)CC1	inconclusive: 0.398 µM [activator, full curve, poor fit]
Cc1ccsc1/C=N/NC(=O)c1cc(-c2ccncc2)nc2ccccc12	inconclusive: 1.46 µM [inhibitor, full curve]
Cc1ccc(S(=O)(=O)N2CCN(c3ncnc4c3cnn4-c3ccccc3)CC2)cc1	inactive
CCCOC(=O)c1cccc(Nc2nc(-c3cccnc3)nc3ccccc23)c1	inconclusive: 14.1 µM [inhibitor, single point]
CCN(C(=O)c1cccc(S(=O)(=O)N(C)C)c1)C12CC3CC(CC(C3)C1)C2	inconclusive: 6.31 µM [inhibitor, single point]
O=C(CCCc1ccccn1)c1cccc2ccccc12	inconclusive: 15.8 µM [inhibitor, single point]
CCOCCCNc1ccc(N2C(=O)CCCC2=O)cc1[N+](=O)[O-]	inconclusive: 3.16 µM [inhibitor, single point]
O=C(Cc1ccccc1[N+](=O)[O-])c1ccc2c(c1)OCO2	inconclusive: 0.251 µM [inhibitor, full curve, poor fit]
O=C(CN1CCN(c2ncc(C(F)(F)F)cc2Cl)CC1)NCCNc1ncc(C(F)(F)F)cc1Cl	inconclusive: 35.5 µM [inhibitor, single point]
Cc1cc(C(=O)CN2C(=O)NC(C)(c3ccccc3)C2=O)c(C)n1CC1CCCO1 (stereo not drawn)	inactive
COc1ccccc1NC(=O)CN1C(=O)C(C)SC(C)C1=O (stereo not drawn)	inconclusive: 6.31 µM [inhibitor, single point]
CN1CCN(CCCN2c3ccccc3Sc3ccc(C(F)(F)F)cc32)CC1	active: 7.3 µM and active: 12.6 µM
Cn1c(SCC(=O)NCc2ccc3c(c2)OCO3)nc2scc(-c3cccs3)c2c1=O	inconclusive: 5.17 µM [inhibitor, full curve, poor fit]
CC(C)c1cccc(C(C)C)c1NC(=O)c1ccccc1	inactive
